For 36 targets, log2 fold change results are on record in the supplement of paper PMC12819154, “High-throughput peptide-centric local stability assay extends protein–ligand identification to membrane proteins, tissues and bacteria” (Nature Structural & Molecular Biology, 2025).

Protein sequences, listed by entry. Tags and fused reporters are not part of them. Lines headed by an entry give the natural chain unless they say otherwise; changes in a name come on top.
UniProt O00499: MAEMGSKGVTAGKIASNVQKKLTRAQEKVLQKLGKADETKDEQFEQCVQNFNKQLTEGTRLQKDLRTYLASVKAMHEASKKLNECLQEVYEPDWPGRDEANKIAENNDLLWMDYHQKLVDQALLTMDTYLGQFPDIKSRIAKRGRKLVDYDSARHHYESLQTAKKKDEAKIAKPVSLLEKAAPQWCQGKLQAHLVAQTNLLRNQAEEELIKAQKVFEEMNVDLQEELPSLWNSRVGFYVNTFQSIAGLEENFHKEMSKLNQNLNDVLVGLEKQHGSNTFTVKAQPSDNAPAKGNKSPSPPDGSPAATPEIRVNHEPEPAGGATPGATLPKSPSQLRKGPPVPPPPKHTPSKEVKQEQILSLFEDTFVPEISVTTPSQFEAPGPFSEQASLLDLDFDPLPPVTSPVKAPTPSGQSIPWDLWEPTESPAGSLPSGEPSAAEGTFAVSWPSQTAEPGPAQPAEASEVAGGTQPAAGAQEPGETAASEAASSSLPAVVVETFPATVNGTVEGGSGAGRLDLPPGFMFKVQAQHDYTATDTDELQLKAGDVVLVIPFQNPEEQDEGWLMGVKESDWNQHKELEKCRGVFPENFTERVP
UniProt O14662: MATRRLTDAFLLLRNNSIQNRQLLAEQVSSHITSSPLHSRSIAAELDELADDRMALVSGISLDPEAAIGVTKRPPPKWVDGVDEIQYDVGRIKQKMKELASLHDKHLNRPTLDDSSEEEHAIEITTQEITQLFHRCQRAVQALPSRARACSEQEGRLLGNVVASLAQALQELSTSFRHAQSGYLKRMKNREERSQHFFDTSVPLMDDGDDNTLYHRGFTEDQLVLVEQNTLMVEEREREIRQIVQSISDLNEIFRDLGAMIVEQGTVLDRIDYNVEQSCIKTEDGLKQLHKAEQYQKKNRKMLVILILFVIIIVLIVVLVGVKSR
UniProt O15198: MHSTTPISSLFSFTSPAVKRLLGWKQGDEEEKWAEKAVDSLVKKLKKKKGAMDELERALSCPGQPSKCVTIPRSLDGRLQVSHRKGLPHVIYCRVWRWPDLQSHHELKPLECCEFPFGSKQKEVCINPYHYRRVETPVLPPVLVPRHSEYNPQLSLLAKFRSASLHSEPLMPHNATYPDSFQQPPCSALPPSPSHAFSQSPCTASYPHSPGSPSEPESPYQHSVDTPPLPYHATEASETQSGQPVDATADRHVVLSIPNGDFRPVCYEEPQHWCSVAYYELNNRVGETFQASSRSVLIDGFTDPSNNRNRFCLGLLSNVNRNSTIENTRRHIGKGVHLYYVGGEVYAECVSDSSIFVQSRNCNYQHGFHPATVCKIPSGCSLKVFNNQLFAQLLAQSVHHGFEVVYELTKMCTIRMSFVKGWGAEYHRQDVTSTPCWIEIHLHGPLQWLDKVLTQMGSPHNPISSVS
UniProt O14523: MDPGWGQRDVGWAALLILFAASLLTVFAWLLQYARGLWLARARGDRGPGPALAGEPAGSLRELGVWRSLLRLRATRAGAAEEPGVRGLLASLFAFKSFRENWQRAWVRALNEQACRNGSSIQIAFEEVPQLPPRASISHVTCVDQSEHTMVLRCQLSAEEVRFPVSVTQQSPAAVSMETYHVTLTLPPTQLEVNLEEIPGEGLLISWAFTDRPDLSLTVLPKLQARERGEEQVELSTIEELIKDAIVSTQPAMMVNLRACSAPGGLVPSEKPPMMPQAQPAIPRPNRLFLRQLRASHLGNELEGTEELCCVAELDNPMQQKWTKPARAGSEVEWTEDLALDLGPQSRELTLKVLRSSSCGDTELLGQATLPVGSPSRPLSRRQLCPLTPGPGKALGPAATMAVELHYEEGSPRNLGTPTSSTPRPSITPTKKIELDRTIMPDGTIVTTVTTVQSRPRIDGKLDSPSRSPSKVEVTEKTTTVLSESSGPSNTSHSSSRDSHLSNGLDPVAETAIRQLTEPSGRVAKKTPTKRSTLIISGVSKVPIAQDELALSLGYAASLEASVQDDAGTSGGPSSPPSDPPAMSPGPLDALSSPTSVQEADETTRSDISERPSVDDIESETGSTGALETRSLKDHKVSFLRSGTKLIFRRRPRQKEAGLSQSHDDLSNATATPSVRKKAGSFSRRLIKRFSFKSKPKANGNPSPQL
UniProt B2RUZ4: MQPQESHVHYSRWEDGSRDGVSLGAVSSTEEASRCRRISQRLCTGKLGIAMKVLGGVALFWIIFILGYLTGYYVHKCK
UniProt A6NIH7: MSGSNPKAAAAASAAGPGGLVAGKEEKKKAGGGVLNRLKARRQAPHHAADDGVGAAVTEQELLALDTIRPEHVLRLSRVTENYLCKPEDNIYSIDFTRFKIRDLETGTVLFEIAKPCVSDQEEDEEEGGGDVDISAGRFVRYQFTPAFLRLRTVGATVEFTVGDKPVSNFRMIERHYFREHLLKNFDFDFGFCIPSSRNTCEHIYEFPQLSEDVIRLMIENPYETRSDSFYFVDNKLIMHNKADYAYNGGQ
UniProt O14715, whole entry: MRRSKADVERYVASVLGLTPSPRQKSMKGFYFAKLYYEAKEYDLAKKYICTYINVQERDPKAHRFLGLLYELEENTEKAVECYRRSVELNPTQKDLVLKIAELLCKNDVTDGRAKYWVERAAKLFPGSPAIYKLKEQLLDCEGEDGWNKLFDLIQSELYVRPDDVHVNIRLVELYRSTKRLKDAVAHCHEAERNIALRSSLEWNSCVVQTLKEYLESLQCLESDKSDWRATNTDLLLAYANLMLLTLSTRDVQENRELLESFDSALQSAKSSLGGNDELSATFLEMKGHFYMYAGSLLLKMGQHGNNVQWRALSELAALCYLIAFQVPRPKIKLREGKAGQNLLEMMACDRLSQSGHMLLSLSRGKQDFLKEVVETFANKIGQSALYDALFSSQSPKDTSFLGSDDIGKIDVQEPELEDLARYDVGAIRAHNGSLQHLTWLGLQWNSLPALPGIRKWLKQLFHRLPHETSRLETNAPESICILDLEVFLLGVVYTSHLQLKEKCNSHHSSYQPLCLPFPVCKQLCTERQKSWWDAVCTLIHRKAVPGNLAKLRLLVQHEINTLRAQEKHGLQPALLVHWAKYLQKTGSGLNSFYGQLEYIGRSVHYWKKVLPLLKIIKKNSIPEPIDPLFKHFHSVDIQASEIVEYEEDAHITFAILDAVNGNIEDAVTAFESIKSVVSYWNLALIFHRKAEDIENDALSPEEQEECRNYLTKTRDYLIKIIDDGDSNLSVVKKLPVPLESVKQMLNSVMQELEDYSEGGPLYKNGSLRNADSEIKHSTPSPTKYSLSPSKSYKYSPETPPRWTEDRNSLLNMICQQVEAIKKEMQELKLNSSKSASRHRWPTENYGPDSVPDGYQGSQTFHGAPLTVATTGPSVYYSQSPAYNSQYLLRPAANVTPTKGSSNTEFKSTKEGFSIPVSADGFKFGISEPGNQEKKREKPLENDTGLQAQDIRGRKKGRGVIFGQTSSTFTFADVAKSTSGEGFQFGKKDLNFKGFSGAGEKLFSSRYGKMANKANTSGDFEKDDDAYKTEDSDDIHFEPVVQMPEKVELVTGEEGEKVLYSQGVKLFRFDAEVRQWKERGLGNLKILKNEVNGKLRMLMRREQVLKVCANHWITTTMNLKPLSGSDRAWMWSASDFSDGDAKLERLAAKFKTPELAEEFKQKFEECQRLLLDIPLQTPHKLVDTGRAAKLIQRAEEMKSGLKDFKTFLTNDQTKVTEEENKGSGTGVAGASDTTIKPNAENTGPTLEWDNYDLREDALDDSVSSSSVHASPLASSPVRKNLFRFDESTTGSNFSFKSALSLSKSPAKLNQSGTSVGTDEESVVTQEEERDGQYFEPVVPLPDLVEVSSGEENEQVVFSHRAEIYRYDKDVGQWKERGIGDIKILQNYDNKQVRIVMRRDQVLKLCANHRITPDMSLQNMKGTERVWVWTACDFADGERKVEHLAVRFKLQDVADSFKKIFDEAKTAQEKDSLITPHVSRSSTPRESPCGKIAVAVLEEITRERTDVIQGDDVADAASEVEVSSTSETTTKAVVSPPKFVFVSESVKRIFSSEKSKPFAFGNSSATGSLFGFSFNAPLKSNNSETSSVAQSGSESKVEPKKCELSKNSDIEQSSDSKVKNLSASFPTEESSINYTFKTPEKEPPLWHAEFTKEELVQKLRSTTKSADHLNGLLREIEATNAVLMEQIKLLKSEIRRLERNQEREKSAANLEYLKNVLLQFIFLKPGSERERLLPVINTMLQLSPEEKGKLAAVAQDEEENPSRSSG
UniProt L0R819, whole entry: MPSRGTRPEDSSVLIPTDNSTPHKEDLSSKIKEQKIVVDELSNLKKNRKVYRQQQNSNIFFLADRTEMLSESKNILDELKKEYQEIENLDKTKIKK
UniProt A6NM28: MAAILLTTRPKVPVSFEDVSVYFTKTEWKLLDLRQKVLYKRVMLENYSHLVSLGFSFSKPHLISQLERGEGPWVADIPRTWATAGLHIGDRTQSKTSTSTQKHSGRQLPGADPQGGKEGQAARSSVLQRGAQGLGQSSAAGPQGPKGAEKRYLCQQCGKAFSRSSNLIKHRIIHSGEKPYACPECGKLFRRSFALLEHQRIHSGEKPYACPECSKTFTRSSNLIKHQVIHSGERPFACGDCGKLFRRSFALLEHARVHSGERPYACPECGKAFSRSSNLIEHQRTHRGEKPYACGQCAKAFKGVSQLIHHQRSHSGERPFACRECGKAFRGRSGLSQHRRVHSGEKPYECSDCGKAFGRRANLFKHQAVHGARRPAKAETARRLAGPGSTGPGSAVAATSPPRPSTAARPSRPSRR
UniProt A7E2V4, whole entry: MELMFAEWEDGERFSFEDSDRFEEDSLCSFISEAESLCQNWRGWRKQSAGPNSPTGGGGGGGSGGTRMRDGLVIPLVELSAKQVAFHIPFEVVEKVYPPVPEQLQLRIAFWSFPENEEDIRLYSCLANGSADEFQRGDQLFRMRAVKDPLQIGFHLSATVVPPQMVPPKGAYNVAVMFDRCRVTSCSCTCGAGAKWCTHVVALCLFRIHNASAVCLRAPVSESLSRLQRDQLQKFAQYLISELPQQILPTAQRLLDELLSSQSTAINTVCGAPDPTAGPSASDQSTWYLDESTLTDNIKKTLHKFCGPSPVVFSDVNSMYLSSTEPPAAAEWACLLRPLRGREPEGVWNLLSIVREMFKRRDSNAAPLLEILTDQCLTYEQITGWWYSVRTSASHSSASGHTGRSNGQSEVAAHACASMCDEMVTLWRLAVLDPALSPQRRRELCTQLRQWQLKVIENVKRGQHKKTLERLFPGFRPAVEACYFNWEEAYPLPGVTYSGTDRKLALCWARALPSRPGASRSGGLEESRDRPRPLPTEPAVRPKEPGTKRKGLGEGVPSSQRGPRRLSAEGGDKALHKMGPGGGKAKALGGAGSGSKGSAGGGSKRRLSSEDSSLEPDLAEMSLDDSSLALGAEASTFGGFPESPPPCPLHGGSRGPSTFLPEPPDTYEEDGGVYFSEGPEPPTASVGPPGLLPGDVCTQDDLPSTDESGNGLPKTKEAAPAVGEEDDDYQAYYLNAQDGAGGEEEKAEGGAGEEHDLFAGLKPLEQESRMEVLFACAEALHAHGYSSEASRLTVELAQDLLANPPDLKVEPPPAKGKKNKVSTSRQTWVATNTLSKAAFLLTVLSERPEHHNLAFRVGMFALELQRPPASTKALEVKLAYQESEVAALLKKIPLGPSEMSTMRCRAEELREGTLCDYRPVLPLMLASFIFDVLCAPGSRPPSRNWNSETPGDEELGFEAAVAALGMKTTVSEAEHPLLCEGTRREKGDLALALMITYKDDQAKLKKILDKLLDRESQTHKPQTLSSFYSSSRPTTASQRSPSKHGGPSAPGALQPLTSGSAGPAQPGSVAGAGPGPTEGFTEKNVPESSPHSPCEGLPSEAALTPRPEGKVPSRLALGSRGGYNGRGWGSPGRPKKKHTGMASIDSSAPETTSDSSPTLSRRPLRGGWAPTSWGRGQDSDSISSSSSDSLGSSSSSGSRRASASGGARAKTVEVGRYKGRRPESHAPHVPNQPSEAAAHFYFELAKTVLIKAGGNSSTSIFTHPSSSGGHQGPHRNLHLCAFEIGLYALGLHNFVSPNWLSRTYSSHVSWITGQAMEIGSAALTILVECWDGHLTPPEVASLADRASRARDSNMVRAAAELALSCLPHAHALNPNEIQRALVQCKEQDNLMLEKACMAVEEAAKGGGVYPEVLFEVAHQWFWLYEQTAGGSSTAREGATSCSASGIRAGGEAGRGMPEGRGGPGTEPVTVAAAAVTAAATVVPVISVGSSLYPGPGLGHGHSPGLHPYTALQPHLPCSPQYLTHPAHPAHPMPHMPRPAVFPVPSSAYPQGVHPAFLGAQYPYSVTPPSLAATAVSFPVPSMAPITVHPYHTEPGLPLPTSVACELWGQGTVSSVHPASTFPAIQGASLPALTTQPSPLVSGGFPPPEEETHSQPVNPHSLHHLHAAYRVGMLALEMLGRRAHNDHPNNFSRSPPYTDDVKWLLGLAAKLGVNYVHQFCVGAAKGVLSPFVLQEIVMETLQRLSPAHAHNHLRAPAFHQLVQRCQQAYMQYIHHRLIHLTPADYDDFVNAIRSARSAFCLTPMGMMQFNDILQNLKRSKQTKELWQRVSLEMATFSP

The list shows a part of the results. Most entries show no effect beyond the scatter of the controls.

Compound in the test: CN[C@@H]1C[C@H]2O[C@@](C)([C@@H]1OC)n1c3ccccc3c3c4c(c5c6ccccc6n2c5c31)C(=O)NC4 [staurosporine]
Kind of test: log2 fold change of tryptic peptide abundance, ligand vs vehicle (limited proteolysis) (log2 ratio); higher = more trypsin-susceptible (destabilized). To be noted: ligand concentration: 20 uM; sample: K562 cleared lysate; digestion: 4 min, 22 C (HT-PELSA RT4min, Orbitrap Astral).
Take “IMPA2 (peptide sequence: VSGETDLSK, peptide start residue: 159) (UniProt O14732)”: the log2 fold change stood at 0.338.

On to “STXBP3 (peptide sequence: QVVHLNLAEDCMNKFK, peptide start residue: 344) (UniProt O00186)”, for which the log2 fold change turned out to be 0.468.

On to “TRAF5 (peptide sequence: FDLRPLMEAVDTVK, peptide start residue: 340) (UniProt O00463)”, for which the log2 fold change is 0.367.

On to “ARPC2 (peptide sequence: DNTINLIHTFR, peptide start residue: 238) (UniProt O15144)”, for which the log2 fold change turned out to be 0.424.

As to “BIN1 (peptide sequence: VNHEPEPAGGATPGATLPK, peptide start residue: 312) (UniProt O00499)”, the log2 fold change was 0.147.

Regarding “ARHGEF10 (peptide sequence: ESWVNSLQMAK, peptide start residue: 841) (UniProt O15013)”, the log2 fold change was -0.628.

For “PPP1R12A (peptide sequence: QNLLHSEK, peptide start residue: 287) (UniProt O14974)”, the log2 fold change came to 0.43.

Consider “STX16 (peptide sequence: LTDAFLLLR, peptide start residue: 6) (UniProt O14662)”, for which the log2 fold change is -0.295.

On to “PIK3C2A (peptide sequence: IKEVSVFTYHK, peptide start residue: 1424) (UniProt O00443)”, for which the log2 fold change was 0.528.

As for “SMAD9 (peptide sequence: GLPHVIYCR, peptide start residue: 83) (UniProt O15198)”, the log2 fold change was found to be 0.265.

As to “EEF2K (peptide sequence: YYSNLTK, peptide start residue: 59) (UniProt O00418)”, the log2 fold change was -0.112.

Turning to “MRPS12 (peptide sequence: GVVLCTFTR, peptide start residue: 60) (UniProt O15235)”, the log2 fold change is -0.0417.

“UniProt O14966 (peptide sequence: LQLWDIAGQER, peptide start residue: 77)”: the log2 fold change is 0.219.

With “UniProt O15231 (peptide sequence: EYVNASEVSSGKPVSAR, peptide start residue: 580)”, the log2 fold change was -0.301.

Consider “UniProt O15391 (peptide sequence: VHVCAECGK, peptide start residue: 324)”, for which the log2 fold change came out at 0.221.

Consider “C2CD2L (peptide sequence: QKEAGLSQSHDDLSNATATPSVR, peptide start residue: 654) (UniProt O14523)”, for which the log2 fold change is -0.612.

Consider “UniProt O15091 (peptide sequence: SRPPFDVVIDGLNVAK, peptide start residue: 400)”, for which the log2 fold change was 0.187.

As to “SPTLC2 (peptide sequence: ANGCVANGEVR, peptide start residue: 16) (UniProt O15270)”, the log2 fold change was -0.331.

As for “SMIM1 (peptide sequence: MQPQESHVHYSR, peptide start residue: 1) (UniProt B2RUZ4)”, the log2 fold change was -0.115.

As for “IPO8 (peptide sequence: QLVNREDR, peptide start residue: 880) (UniProt O15397)”, the log2 fold change was 0.215.

Turning to “MEN1 (peptide sequence: KPPGTVAGTAR, peptide start residue: 522) (UniProt O00255)”, the log2 fold change was 0.319.

Regarding “AXIN1 (peptide sequence: DAAPPGRLPQK, peptide start residue: 260) (UniProt O15169)”, the log2 fold change turned out to be 0.558.

In the case of “UNC119B (peptide sequence: AAAAASAAGPGGLVAGKEEKK, peptide start residue: 8) (UniProt A6NIH7)”, the log2 fold change was -0.0838.

Regarding “UniProt O14715 (peptide sequence: YICTYINVQERDPK, peptide start residue: 48)”, the log2 fold change is -0.247.

In the case of “UniProt L0R819 (peptide sequence: IVVDELSNLKK, peptide start residue: 36)”, the log2 fold change came to 0.172.

Take “DCTN6 (peptide sequence: ILPNYHHLK, peptide start residue: 170) (UniProt O00399)”: the log2 fold change came to 0.199.

With “IFIT3 (peptide sequence: AIELFQR, peptide start residue: 260) (UniProt O14879)”, the log2 fold change is -0.111.

In the case of “BCL9 (peptide sequence: FAMPSSTPLYHDAIK, peptide start residue: 1016) (UniProt O00512)”, the log2 fold change was determined as 0.382.

For “UniProt A6NKT7 (peptide sequence: KVEHLAVR, peptide start residue: 2415)”, the log2 fold change stood at 0.426.

For “ACOT7 (peptide sequence: GCVITISGR, peptide start residue: 287) (UniProt O00154)”, the log2 fold change was -0.195.

As for “ZFP92 (peptide sequence: THRGEKPYACGQCAK, peptide start residue: 285) (UniProt A6NM28)”, the log2 fold change came to 1.4.

On to “KIF3B (peptide sequence: ERPDTGVYVK, peptide start residue: 168) (UniProt O15066)”, for which the log2 fold change is -0.556.

In the case of “KIF3C (peptide sequence: NMENYLQEQK, peptide start residue: 456) (UniProt O14782)”, the log2 fold change is 0.637.

Turning to “BACH1 (peptide sequence: TFGESQDLPLKSDLGTR, peptide start residue: 360) (UniProt O14867)”, the log2 fold change is -0.28.

With “RFXANK (peptide sequence: VQQVIENHILK, peptide start residue: 238) (UniProt O14593)”, the log2 fold change turned out to be 0.182.

Regarding “ZSWIM8 (peptide sequence: RAHNDHPNNFSR, peptide start residue: 1681) (UniProt A7E2V4)”, the log2 fold change was -0.503.
